{
  "sequences": {"note": "Chains of the proteins cited; added tags and fusions are not shown.", "UniProt P54619": "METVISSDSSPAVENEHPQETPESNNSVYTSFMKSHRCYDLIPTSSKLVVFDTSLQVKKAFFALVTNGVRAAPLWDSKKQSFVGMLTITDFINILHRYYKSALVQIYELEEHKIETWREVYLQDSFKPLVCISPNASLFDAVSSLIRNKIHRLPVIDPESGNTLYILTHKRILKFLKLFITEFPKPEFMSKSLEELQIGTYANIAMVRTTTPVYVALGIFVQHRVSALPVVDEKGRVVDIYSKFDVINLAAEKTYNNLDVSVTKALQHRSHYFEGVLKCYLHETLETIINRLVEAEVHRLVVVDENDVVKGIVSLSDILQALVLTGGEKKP"},
  "source": "paper doi:10.1101/2024.05.17.594698",
  "target": "recombinant AMPK γ1 chain, His-tagged (UniProt P54619)",
  "assay": "co-IP",
  "note": "These are yes or no findings as the source states them, for the method shown. Some entries that bind do so weakly or less than the wild type.",
  "data": [
    {"binder": "recombinant sestrin 2 (protein, UniProt P58004 1-480) MIVADSECRAELKDYLRFAPGGVGDSGPGEEQRESRARRGPRGPSAFIPVEEVLREGAESLEQHLGLEALMSSGRVDNLAVVMGLHPDYFTSFWRLHYLLLHTDGPLASSWRHYIAIMAAARHQCSYLVGSHMAEFLQTGGDPEWLLGLHRAPEKLRKLSEINKLLAHRPWLITKEHIQALLKTGEHTWSLAELIQALVLLTHCHSLSSFVFGCGILPEGDADGSPAPQAPTPPSEQSSPPSRDPLNNSGGFESARDVEALMERMQQLQESLLRDEGTSQEEMESRFELEKSESLLVTPSADILEPSPHPDMLCFVEDPTFGYEDFTRRGAQAPPTFRAQDYTWEDHGYSLIQRLYPEGGQLLDEKFQAAYSLTYNTIAMHSGVDTSVLRRAIWNYIHCVFGIRYDDYDYGEVNQLLERNLKVYIKTVACYPEKTTRRMYNLFWRHFRHSEKVHVNLLLLEARMQAALLYALRAITRYMT", "values": [
      {"measurement": "binding", "result": "binds"}
    ]}
  ]
}
